Literature values in US20020061869A1, “Free insulin testosterone test” (priority 1998, published 2002).
For at least one compound, name, drawing or mass did not settle the structure.

Amino acid sequences for entries named in this document (tags omitted). Residues count along the entry.
UniProt P02768, 25-609: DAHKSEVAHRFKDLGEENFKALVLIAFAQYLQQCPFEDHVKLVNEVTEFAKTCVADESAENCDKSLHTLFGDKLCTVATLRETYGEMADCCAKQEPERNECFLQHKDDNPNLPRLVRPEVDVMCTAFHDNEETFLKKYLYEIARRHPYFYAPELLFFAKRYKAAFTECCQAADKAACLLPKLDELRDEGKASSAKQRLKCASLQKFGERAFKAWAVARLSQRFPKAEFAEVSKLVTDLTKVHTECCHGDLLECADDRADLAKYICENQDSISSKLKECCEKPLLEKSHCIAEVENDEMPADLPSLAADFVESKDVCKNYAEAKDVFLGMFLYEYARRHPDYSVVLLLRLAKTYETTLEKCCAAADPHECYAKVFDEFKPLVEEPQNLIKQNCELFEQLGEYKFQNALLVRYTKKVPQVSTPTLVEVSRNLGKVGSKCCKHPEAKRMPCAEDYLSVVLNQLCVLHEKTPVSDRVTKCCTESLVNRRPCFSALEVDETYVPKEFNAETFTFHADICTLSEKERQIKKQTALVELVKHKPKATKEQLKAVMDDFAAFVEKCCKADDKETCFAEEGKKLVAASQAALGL

Experiments:
CBG = biological target: T1, CBG (Homo sapiens, UniProt P08185); conditions: cited from earlier work
T1 sequence (P08185 23-405): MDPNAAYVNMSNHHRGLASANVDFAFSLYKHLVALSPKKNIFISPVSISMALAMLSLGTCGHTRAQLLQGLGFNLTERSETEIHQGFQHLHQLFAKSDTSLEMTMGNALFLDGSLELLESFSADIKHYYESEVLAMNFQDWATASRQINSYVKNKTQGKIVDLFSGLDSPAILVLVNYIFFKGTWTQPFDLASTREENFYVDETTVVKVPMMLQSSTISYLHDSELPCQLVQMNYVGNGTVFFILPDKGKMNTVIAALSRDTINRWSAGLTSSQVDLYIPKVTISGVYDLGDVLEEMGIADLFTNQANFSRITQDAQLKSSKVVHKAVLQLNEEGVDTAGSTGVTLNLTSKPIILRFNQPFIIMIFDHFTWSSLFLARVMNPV

albumin = albumin (Homo sapiens, UniProt P02768); conditions: cited from earlier work

Compound: C[C@]12CC[C@@H]3c4ccc(O)cc4CC[C@H]3[C@@H]1CC[C@@H]2O [Estradiol, estradiol]
- binding to CBG (CBG): does not bind significantly
- binding to albumin relative to testosterone (albumin): better than testosterone
